PubChem BioAssay AID686937 – Drosophila RNAi Screening Center | 2013
Assay: 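Genes whose loss weakens secretory pathway function in fly cells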 (primary screen). Cell system: Drosophila S2 cells expressing secreted horseradish peroxidase. Reagent: long dsRNA against Drosophila genes. Time to read-out: about 5.5 days (5 days dsRNA, then 12 h reporter induction). Conditions: reporter expression induced after 5 days of dsRNA, read 12 h later; inducer not stated. Detection: 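After 5 days of dsRNA and 12 h of reporter induction, medium peroxidase read by chemiluminescence and scored as per-plate z-score; higher values mean more reporter released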. Scale: z-score: higher = more reporter secreted into medium.
The deposit covers about 23,000 reagents; this is a random part of those with a known target gene and a result. 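Reduced-secretion tags in replicate 1 do not always agree with the z-scores; no criterion for assigning the tags was given.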 Names joined by + are all predicted targets of the reagent. Not given: the amount of reagent.

gene knocked down | dsRNA | z-score, replicate 1 | z-score, replicate 2 | z-score, replicate 3 | z-score, replicate 4 | phenotype, replicate 1
slou (slouch) | DRSC17058 | 0.39 | 0.28 | – | – | –
Tao | DRSC19573 | 0.1 | 0.34 | 0.49 | 0.01 | –
Tao | DRSC19574 | 0.69 | 0.24 | -0.17 | 0.3 | –
Tao | DRSC22639 | -0.58 | -0.05 | – | – | –
wg (wingless) | DRSC03636 | 0.33 | 0.46 | – | – | –
CG33257 | DRSC09917 | 0.01 | 0.09 | – | – | –
CG16985 | DRSC08501 | 0.12 | 0.21 | – | – | –
CG32551 | DRSC19259 | -0.29 | -0.2 | – | – | –
Mul1 (Mitochondrial E3 ubiquitin protein ligase 1) | DRSC08174 | 0.27 | 0.36 | – | – | –
Pus1 (Pseudouridine synthase 1) | DRSC15548 | 0.23 | -0.8 | – | – | –
CG13312 | DRSC09983 | 0.23 | 0.26 | – | – | –
CG7900 | DRSC16336 | 0.38 | 0.45 | 0.63 | 0.16 | –
CG7900 | DRSC21343 | 0.27 | 0.34 | – | – | –
CG5850 | DRSC02905 | 0.56 | 0.35 | – | – | –
CG1409 | DRSC17910 | -0.15 | -0.3 | – | – | –
CG3071 | DRSC18526 | 0.12 | -0.34 | – | – | –
apolpp (apolipophorin) | DRSC17216 | 0.22 | 0.1 | – | – | –
CG14762 | DRSC05073 | 0.62 | – | – | – | –
CG14762 | DRSC06496 | 0.31 | 0.4 | – | – | –
CG33769 | DRSC11716 | 0.07 | 0.32 | – | – | –
mod(mdg4) + pre-mod(mdg4)-Z + pre-mod(mdg4)-T | DRSC13477 | -0.11 | 0.08 | – | – | –
mod(mdg4) + pre-mod(mdg4)-Z + pre-mod(mdg4)-T | DRSC17001 | 0.24 | 0.31 | – | – | –
Lkr (Leucokinin receptor) | DRSC09754 | 0.35 | 0.03 | – | – | –
Pdha (Pyruvate dehydrogenase E1 alpha subunit) | DRSC18413 | 0.25 | 0.22 | – | – | –
CG32572 | DRSC19525 | 0.31 | 0.43 | – | – | –
CG32572 | DRSC19526 | 0.13 | 0.35 | – | – | –
Ugalt (UDP-galactose transporter) | DRSC18467 | 0.26 | 0.3 | – | – | –
tHMG1 (testis-enriched HMG-box-containing protein 1) | DRSC16181 | -0.24 | 0.18 | – | – | –
CG42535 | DRSC09041 | -0.07 | 0.15 | – | – | –
TyrR (Tyramine receptor) | DRSC13259 | 0.35 | 0.61 | – | – | –
TyrR (Tyramine receptor) | DRSC16242 | 0.43 | 0.57 | – | – | –
CG8910 | DRSC07414 | 0.35 | -0.03 | – | – | –
htl (heartless) | DRSC16968 | 0.35 | 0.37 | – | – | –
CG30109 + CG30108 | DRSC05674 | -0.39 | 0.23 | – | – | –
Rpt6R (Regulatory particle triple-A ATPase 6-related) | DRSC15431 | 0.28 | 0.3 | – | – | –
Pp2B-14D (Protein phosphatase 2B at 14D) | DRSC20270 | -0.94 | -1.35 | – | – | –
CG40551 (retired record) | DRSC21229 | 0.63 | 0.35 | – | – | –
Nlg3 (Neuroligin 3) | DRSC12477 | -0.4 | -0.07 | – | – | –
Nlg3 (Neuroligin 3) | DRSC12524 | 0.2 | 0.37 | – | – | –
Nlg3 (Neuroligin 3) | DRSC12540 | 0.05 | 0.03 | – | – | –
Nlg3 (Neuroligin 3) | DRSC12574 | 0 | -0.7 | – | – | –
alpha-Est7 (alpha-Esterase-7) | DRSC12619 | 0.74 | 0.56 | – | – | –
CG7483 | DRSC16249 | 0.38 | 0.72 | – | – | –
CG7483 | DRSC22432 | 2.54 | 0.58 | – | – | –
CG16965 | DRSC02547 | 0.43 | 0.47 | – | – | –
CG32718 | DRSC17538 | 0.49 | 0.46 | – | – | –
Zw10 (Zeste-white 10) | DRSC18793 | 0.05 | -0.09 | – | – | –
CG30076 | DRSC05494 | -1.15 | -0.17 | – | – | –
Cyp9f3 (Cytochrome P450 9f3) | DRSC16636 | 0.1 | 0.18 | – | – | –
Ublcp1 | DRSC14149 | -0.31 | -0.49 | – | – | –
RfC3 (Replication factor C subunit 3) | DRSC03411 | -0.08 | 0.2 | – | – | –
Xrp1 | DRSC15282 | -2.53 | -3.35 | – | – | reduced secretion
Xrp1 | DRSC15283 | 0.44 | 0.58 | – | – | –
Gapdh2 (Glyceraldehyde 3 phosphate dehydrogenase 2) | DRSC20246 | -0.23 | -0.05 | – | – | –
CG14069 | DRSC02372 | -0.4 | -0.07 | – | – | –
CG13994 | DRSC02326 | 0.21 | 0.12 | – | – | –
